Test results from the supplement of paper PMC10849652.
The other results are listed elsewhere or left out.

Amino acid sequences for entries named in this document (tags omitted). A change or cut given only in a name is not applied to a line headed by its entry.
UniProt Q9Y4D1, whole entry, looked up: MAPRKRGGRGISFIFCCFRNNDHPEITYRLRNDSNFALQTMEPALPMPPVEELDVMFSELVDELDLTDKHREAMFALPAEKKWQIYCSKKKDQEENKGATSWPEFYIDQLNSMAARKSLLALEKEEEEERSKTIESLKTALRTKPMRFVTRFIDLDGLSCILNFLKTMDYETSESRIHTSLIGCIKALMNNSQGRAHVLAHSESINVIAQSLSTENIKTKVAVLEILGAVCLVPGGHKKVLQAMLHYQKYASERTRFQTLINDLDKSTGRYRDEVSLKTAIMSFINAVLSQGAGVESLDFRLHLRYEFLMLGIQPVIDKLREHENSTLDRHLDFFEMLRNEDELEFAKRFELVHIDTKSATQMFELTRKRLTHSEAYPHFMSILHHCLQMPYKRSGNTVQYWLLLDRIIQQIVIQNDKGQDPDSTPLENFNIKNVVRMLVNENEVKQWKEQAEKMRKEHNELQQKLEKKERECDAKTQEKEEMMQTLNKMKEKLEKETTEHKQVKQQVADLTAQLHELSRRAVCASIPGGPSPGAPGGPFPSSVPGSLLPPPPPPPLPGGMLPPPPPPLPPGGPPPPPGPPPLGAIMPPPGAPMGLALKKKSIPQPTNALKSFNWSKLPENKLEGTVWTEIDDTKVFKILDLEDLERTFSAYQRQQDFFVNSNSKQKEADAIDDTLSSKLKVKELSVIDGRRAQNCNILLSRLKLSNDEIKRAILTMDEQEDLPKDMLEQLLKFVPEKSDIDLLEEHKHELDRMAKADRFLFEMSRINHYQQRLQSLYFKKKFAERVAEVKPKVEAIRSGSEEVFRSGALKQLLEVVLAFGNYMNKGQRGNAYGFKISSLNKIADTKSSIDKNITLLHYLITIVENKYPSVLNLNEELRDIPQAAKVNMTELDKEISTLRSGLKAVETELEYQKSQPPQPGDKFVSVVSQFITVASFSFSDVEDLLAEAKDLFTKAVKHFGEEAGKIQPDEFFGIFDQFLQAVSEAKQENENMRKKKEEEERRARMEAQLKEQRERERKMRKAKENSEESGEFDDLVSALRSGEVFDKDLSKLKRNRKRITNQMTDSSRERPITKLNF
UniProt P49447: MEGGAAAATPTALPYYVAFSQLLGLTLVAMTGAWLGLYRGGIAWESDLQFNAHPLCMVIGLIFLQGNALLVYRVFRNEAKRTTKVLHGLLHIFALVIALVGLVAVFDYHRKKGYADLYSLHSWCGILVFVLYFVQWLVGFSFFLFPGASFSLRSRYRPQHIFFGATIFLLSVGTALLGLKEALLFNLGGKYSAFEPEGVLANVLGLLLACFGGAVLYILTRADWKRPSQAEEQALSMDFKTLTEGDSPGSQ
UniProt P39880: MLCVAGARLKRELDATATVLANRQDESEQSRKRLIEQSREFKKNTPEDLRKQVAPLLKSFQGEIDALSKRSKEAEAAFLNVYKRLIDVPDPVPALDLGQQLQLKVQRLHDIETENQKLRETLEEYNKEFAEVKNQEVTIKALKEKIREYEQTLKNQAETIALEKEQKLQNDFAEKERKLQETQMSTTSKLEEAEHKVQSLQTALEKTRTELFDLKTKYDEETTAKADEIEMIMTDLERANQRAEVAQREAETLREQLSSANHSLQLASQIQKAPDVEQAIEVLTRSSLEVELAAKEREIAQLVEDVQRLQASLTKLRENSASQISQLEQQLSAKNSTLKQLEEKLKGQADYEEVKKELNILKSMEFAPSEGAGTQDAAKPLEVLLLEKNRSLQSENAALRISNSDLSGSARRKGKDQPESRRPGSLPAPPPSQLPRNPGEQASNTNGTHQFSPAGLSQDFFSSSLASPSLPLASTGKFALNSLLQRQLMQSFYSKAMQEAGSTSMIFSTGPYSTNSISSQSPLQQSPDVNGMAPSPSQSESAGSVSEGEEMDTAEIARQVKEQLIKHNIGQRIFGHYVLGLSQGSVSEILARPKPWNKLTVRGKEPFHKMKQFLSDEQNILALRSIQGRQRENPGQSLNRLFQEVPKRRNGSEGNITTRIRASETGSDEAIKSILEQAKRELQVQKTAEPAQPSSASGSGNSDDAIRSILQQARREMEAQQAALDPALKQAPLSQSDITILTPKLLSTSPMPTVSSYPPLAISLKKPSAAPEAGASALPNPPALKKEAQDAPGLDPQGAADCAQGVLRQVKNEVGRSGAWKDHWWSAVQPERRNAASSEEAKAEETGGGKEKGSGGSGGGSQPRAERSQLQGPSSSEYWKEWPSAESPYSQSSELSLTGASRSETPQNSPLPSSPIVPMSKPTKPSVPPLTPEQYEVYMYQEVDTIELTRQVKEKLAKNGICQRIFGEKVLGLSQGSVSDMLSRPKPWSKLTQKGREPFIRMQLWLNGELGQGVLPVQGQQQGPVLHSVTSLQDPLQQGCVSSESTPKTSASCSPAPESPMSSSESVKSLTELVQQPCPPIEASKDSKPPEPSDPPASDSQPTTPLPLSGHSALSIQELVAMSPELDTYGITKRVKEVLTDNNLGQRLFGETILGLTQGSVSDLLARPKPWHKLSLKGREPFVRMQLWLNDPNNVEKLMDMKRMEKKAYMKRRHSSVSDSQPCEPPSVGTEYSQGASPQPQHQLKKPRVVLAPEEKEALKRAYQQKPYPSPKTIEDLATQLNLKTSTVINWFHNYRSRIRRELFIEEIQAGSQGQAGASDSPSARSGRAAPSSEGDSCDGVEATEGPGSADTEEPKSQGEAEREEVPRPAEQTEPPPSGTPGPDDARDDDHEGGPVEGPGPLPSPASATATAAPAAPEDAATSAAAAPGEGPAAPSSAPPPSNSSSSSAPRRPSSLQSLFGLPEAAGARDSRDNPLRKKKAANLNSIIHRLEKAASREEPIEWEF
UniProt O60888: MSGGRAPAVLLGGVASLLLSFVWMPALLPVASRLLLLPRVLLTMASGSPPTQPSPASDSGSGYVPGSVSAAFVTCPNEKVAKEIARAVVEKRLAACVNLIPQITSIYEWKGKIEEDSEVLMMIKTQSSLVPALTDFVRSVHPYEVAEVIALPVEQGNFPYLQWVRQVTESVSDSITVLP
UniProt Q9UER7, whole entry, looked up: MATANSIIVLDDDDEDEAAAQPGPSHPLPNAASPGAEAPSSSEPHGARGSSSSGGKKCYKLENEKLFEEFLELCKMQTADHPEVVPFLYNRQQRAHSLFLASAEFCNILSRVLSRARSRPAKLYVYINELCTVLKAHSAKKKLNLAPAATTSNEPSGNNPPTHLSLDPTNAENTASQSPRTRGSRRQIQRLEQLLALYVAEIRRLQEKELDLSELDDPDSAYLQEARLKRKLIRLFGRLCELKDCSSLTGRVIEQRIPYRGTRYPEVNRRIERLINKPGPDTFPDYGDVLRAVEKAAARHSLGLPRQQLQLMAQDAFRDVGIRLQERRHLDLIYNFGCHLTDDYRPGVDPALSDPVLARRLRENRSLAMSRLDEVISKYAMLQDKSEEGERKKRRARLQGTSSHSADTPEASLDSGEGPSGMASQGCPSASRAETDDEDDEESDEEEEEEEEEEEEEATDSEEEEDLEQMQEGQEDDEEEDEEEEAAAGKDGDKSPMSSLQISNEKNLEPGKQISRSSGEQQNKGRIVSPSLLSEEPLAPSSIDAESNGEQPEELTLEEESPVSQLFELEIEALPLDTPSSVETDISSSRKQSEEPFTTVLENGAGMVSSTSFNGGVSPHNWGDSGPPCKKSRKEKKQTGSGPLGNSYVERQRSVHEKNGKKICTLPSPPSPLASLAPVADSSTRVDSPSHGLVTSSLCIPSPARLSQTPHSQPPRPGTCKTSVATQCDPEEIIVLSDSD
UniProt Q9UBX1: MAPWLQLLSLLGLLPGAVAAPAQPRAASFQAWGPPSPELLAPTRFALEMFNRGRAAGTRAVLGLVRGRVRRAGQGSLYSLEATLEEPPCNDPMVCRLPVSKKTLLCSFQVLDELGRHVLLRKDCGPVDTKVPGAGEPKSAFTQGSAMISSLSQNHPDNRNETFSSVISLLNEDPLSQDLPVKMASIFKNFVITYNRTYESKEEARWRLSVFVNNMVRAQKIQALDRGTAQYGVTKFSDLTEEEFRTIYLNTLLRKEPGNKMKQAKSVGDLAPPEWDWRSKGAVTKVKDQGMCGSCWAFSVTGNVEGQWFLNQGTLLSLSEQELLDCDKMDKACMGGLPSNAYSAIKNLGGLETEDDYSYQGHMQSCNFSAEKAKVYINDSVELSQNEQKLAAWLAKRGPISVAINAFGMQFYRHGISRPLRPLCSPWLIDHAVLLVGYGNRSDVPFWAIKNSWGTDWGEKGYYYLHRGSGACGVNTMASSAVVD
UniProt P50461: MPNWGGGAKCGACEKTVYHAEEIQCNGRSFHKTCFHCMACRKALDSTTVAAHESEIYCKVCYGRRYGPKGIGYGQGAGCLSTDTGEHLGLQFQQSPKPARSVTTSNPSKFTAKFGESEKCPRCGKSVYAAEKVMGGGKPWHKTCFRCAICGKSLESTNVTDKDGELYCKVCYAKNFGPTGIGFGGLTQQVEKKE
UniProt Q9BTE7: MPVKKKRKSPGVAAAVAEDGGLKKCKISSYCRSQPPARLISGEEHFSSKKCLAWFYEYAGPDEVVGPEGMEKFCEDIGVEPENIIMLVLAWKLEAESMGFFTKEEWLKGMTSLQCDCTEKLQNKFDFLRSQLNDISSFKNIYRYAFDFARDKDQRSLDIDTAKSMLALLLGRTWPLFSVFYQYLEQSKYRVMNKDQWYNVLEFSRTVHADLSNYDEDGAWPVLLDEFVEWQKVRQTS
UniProt P17812: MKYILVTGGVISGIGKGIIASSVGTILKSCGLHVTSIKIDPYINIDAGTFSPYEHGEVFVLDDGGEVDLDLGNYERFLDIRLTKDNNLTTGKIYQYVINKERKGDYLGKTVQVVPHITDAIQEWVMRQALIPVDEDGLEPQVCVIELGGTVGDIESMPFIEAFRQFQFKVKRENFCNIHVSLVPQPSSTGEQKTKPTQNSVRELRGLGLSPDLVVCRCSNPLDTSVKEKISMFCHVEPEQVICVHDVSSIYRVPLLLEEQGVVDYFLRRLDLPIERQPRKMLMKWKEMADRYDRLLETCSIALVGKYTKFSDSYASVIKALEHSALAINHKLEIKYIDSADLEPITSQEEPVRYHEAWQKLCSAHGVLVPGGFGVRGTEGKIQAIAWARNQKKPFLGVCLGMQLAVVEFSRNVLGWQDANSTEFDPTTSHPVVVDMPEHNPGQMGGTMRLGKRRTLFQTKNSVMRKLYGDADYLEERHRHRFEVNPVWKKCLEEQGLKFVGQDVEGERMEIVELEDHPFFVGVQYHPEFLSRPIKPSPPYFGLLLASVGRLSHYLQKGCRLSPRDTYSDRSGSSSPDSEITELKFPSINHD
UniProt Q9HCG8: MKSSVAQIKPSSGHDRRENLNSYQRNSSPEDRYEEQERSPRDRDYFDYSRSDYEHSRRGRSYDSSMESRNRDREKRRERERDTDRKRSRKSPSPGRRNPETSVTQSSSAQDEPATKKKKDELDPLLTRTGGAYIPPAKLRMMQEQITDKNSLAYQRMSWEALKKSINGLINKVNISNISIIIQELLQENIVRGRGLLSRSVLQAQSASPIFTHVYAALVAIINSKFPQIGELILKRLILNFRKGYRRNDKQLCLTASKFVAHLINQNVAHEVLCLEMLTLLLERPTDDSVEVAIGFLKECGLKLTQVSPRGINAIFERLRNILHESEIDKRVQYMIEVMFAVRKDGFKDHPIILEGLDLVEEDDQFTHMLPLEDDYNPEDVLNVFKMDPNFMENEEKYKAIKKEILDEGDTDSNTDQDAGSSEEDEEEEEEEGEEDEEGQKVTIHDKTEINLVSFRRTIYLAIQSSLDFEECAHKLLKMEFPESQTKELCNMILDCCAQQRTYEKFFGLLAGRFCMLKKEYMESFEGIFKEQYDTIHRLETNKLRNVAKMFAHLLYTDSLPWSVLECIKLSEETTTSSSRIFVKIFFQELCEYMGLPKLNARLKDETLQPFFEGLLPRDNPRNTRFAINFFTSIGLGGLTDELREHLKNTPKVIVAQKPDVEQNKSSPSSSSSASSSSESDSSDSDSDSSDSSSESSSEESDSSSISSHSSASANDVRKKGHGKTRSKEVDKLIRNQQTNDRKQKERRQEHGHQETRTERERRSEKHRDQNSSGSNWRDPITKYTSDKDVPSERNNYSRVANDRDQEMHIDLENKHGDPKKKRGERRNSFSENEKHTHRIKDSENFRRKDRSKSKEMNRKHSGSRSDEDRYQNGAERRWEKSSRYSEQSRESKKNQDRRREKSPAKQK
UniProt Q9UJU6: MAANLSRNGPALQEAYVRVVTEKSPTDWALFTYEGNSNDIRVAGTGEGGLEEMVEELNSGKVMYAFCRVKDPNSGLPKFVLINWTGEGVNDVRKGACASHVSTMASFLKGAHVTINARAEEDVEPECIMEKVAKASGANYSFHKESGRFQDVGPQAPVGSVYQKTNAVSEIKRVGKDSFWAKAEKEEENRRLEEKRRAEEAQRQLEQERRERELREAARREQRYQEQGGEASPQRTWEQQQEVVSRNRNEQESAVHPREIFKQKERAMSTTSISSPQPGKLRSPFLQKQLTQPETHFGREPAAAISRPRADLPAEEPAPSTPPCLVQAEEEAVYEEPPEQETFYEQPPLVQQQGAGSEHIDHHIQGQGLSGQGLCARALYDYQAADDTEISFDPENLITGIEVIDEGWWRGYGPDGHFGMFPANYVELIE

Assays:
Assay in all cases: log2 fold change, soluble protein after heating vs DMSO (PISA); higher = thermal stabilisation; K562 cells, 10 uM, 30 min; active = over 0.2 and 3.5 SD of the protein, either way, in both replicates (recomputed)
saracatinib = compound: CN1CCN(CCOc2cc(OC3CCOCC3)c3c(Nc4c(Cl)ccc5c4OCO5)ncnc3c2)CC1 [saracatinib]
Procedure, shortened: (§1)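 Thermal stability values are relative to control samples and come from duplicates. They are expressed as log2 fold changes. For measurement, K562 cells (2×10^6 cells/mL) received 10 μM compound for 30 min, and aliquots were heated for 3 min over 48°C-58°C, pooled, and extracted at 4°C in PBS with 0.5% NP-40. Soluble protein, the supernatant after 21,000xg for 90 min, was quantified by TMTpro 16plex LC-MS/MS with equalised channel sums.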

sotrastaurin = compound: CN1CCN(c2nc(C3=C(c4c[nH]c5ccccc45)C(=O)NC3=O)c3ccccc3n2)CC1 [sotrastaurin]
Procedure, shortened: as §1

Tubastatin A = compound: CN1CCc2c(c3ccccc3n2Cc2ccc(C(=O)NO)cc2)C1 [Tubastatin A]
Procedure, shortened: as §1

[1] = compound: CNC(=O)C1=CC=CC=C1NC2=NC(=NC=C2Cl)NC3=C(C=C(C=C3)N4CCOCC4)OC
Procedure, shortened: as §1

defactinib = compound: CNC(=O)c1ccc(Nc2ncc(C(F)(F)F)c(NCc3nccnc3N(C)S(C)(=O)=O)n2)cc1 [defactinib]
Procedure, shortened: as §1

rucaparib = compound: CNCc1ccc(-c2[nH]c3cc(F)cc4c3c2CCNC4=O)cc1 [rucaparib]
Procedure, shortened: as §1

[2] = compound: CNc1nc(-c2ccc3c(N)n[nH]c3c2)cc(N2C[C@@H](C(=O)NC3CCCCC3)CC[C@H]2C)n1
Procedure, shortened: as §1

encorafenib = compound: COC(=O)N[C@@H](C)CNc1nccc(-c2cn(C(C)C)nc2-c2cc(Cl)cc(NS(C)(=O)=O)c2F)n1 [encorafenib]
Procedure, shortened: as §1

[3] = compound: COC(=O)[C@H](CCSC)NC(=O)C1=C(C=C(C=C1)NC[C@H](CS)N)C2=CC=CC=C2
Procedure, shortened: as §1

[4] = compound: COC1=CC=C(C=C1)CN2C=CC3=C2C=C(C=C3)C(=O)NO
Procedure, shortened: as §1

filanesib = compound: CON(C)C(=O)N1N=C(c2cc(F)ccc2F)S[C@@]1(CCCN)c1ccccc1 [filanesib]
Procedure, shortened: as §1

zotarolimus = compound: CO[C@H]1C[C@@H]2CC[C@@H](C)[C@@](O)(O2)C(=O)C(=O)N2CCCC[C@H]2C(=O)O[C@H]([C@H](C)C[C@@H]2CC[C@H](n3cnnn3)[C@H](OC)C2)CC(=O)[C@H](C)/C=C(\C)[C@@H](O)[C@@H](OC)C(=O)[C@H](C)C[C@H](C)/C=C/C=C/C=C/1C [zotarolimus]
Procedure, shortened: as §1

idasanutlin = compound: COc1cc(C(=O)O)ccc1NC(=O)[C@@H]1N[C@@H](CC(C)(C)C)[C@](C#N)(c2ccc(Cl)cc2F)[C@H]1c1cccc(Cl)c1F [idasanutlin]
Procedure, shortened: as §1

alisertib = compound: COc1cc(Nc2ncc3c(n2)-c2ccc(Cl)cc2C(c2c(F)cccc2OC)=NC3)ccc1C(=O)O [alisertib]
Procedure, shortened: as §1

[5] = compound: COc1cc2nc(-c3cc(F)ccc3O)nc(N[C@@H]3CNC[C@H]3C(C)(C)O)c2cc1OC
Procedure, shortened: as §1

gefitinib = compound: COc1cc2ncnc(Nc3ccc(F)c(Cl)c3)c2cc1OCCCN1CCOCC1 [gefitinib]
Procedure, shortened: as §1

[6] = compound: COc1cccc2cc(-c3nc([C@H]4CC[C@H](C(=O)O)CC4)n4ncnc(N)c34)[nH]c12
Procedure, shortened: as §1

lapatinib = compound: CS(=O)(=O)CCNCc1ccc(-c2ccc3ncnc(Nc4ccc(OCc5cccc(F)c5)c(Cl)c4)c3c2)o1 [lapatinib]
Procedure, shortened: as §1

pictilisib = compound: CS(=O)(=O)N1CCN(Cc2cc3nc(-c4cccc5[nH]ncc45)nc(N4CCOCC4)c3s2)CC1 [pictilisib]
Procedure, shortened: as §1

alvocidib = compound: CN1CC[C@H](c2c(O)cc(O)c3c(=O)cc(-c4ccccc4Cl)oc23)[C@H](O)C1 [alvocidib]
Procedure, shortened: as §1

Measured: log2 fold change

CTBS (UniProt Q01459)
inactive: saracatinib 0.081 | sotrastaurin -0.245 | Tubastatin A 0.038 | [1] 0.023 | defactinib -0.082 | rucaparib 0.055 | [2] -0.132 | encorafenib -0.093 | [3] -0.038 | [4] -0.006 | filanesib -0.038 | zotarolimus 0.002 | idasanutlin 0.018 | alisertib -0.032 | [5] 0.026 | gefitinib 0.01 | [6] 0.055 | lapatinib 0.004 | pictilisib -0.068

DCP2 (UniProt Q8IU60)
inactive: saracatinib -0.053 | sotrastaurin -0.267 | Tubastatin A 0.013 | defactinib 0.098 | [2] -0.153 | [3] 0.081 | [4] -0.085 | filanesib 0.121 | zotarolimus -0.037 | idasanutlin 0.167 | [5] 0.075 | lapatinib -0.042

DAAM1 (UniProt Q9Y4D1)
inactive: saracatinib -0.086 | alvocidib 0.053 | [2] -0.071 | zotarolimus 0.018

CYB561 (UniProt P49447)
inactive: saracatinib 0.097 | alvocidib 0.077 | Tubastatin A -0.004 | [1] -0.052 | defactinib 0.098 | rucaparib -0.027 | [2] -0.058 | encorafenib 0.135 | [3] -0.142 | [4] -0.128 | zotarolimus -0.011 | idasanutlin -0.017 | alisertib -0.253 | [5] -0.038 | gefitinib -0.172 | [6] 0.156 | lapatinib 0.104 | pictilisib 0.001

CUX1 isoform 3 (UniProt P39880)
inactive: saracatinib 0.002 | sotrastaurin -0.003 | Tubastatin A 0.021 | [1] 0.012 | defactinib -0.065 | rucaparib 0.037 | [2] -0.062 | encorafenib -0.018 | [3] 0.01 | [4] 0.068 | filanesib 0.001 | zotarolimus -0.002 | idasanutlin 0.012 | alisertib -0.047 | [5] -0.024 | gefitinib 0.009 | [6] 0.008 | lapatinib 0.013 | pictilisib 0.054

CUTA isoform 2 (UniProt O60888)
inactive: saracatinib 0.202 | sotrastaurin 0.097 | Tubastatin A 0.049 | [1] 0.003 | defactinib -0.027 | rucaparib -0.035 | [2] 0.034 | encorafenib -0.002 | [3] 0.122 | [4] 0.248 | filanesib 0.108 | zotarolimus -0.159 | idasanutlin 0.002 | alisertib -0.055 | [5] -0.225 | gefitinib 0.037 | [6] 0.012 | lapatinib 0.023 | pictilisib -0.358

CTDSPL2 (UniProt Q05D32)
inactive: saracatinib -0.046 | alvocidib -0.12 | [2] -0.374 | zotarolimus 0.106 | idasanutlin 0.082 | gefitinib 0.05 | pictilisib 0.192

DAXX (UniProt Q9UER7)
inactive: saracatinib -0.001 | sotrastaurin -0.078 | Tubastatin A 0.122 | [1] -0.142 | defactinib 0.005 | rucaparib 0.048 | [2] 0.018 | encorafenib -0.097 | [3] 0.109 | [4] 0.248 | filanesib 0.008 | zotarolimus 0.055 | idasanutlin -0.067 | [5] 0.283 | gefitinib -0.125 | lapatinib -0.05 | pictilisib 0.247

CTSF (UniProt Q9UBX1)
inactive: [1] 0.138 | pictilisib -0.039

CXXC5 (UniProt Q7LFL8)
inactive: saracatinib 0.068 | [1] -0.136 | [2] 0.038

CSRP3 (UniProt P50461)
inactive: sotrastaurin -0.052 | alvocidib -0.013 | Tubastatin A -0.058 | [1] 0.009 | defactinib 0.131 | rucaparib -0.067 | encorafenib -0.049 | [3] 0.117 | [4] 0.056 | filanesib 0.02 | zotarolimus -0.027 | idasanutlin 0.046 | alisertib -0.031 | [5] 0.046 | gefitinib 0.054 | [6] 0.127 | lapatinib -0.02 | pictilisib 0.06

CTNS isoform 2 (UniProt O60931)
inactive: sotrastaurin 0.07 | alvocidib 0.004 | defactinib -0.172 | rucaparib -0.104 | encorafenib 0.101 | [3] -0.061 | filanesib -0.132 | zotarolimus 0.115 | alisertib 0.029 | [6] 0.081

DCUN1D5 (UniProt Q9BTE7)
inactive: Tubastatin A 0.138 | defactinib -0.345 | [3] 0.012 | [4] -0.022 | idasanutlin 0.095 | alisertib 0.109 | [6] -0.039 | pictilisib 0

DCBLD2 isoform 2 (UniProt Q96PD2)
inactive: saracatinib -0.033 | [2] 0 | idasanutlin 0.225

CTPS1 isoform 2 (UniProt P17812)
inactive: sotrastaurin -0.078 | filanesib -0.339 | idasanutlin -0.11

CWC22 (UniProt Q9HCG8)
inactive: [4] 0.035 | [5] -0.359 | lapatinib 0.216

DBNL (UniProt Q9UJU6)
inactive: zotarolimus -0.324

Quoted at random: two records from the list, in no set order.
CSRP3 (UniProt P50461)
inactive: sotrastaurin -0.052 | alvocidib -0.013 | Tubastatin A -0.058 | [1] 0.009 | defactinib 0.131 | rucaparib -0.067 | encorafenib -0.049 | [3] 0.117 | [4] 0.056 | filanesib 0.02 | zotarolimus -0.027 | idasanutlin 0.046 | alisertib -0.031 | [5] 0.046 | gefitinib 0.054 | [6] 0.127 | lapatinib -0.02 | pictilisib 0.06

DBNL (UniProt Q9UJU6)
inactive: zotarolimus -0.324

Carrying on:

CUL7 isoform 2 (UniProt Q14999)
inactive: saracatinib -0.133 | Tubastatin A 0.046 | [1] 0.011 | [2] 0.133 | [5] 0.111 | gefitinib 0.386 | lapatinib -0.023 | pictilisib -0.206
